In all, about 78,000 compounds went through this assay and about 1,800 (2.3%) were called active. This list was built around the results that the source calls inconclusive (neither active nor inactive); the mix of calls is not that of the screen. Rule as the data show it: active = inhibition above about 30%; inconclusive = mostly about 10% to 28%; inactive = weaker than that.
biological target: Interleukin-1 receptor-like 1 (Homo sapiens) (UniProt Q01638); experiment: blocks human ST2 binding to IL-33, primary screen, biochemical, AlphaLISA (AID 1259354); conditions: AlphaLISA ST2-Fc/biotin-IL-33 interaction, 1 h; at 17 µM, stronger effect = higher value

Chains of the proteins cited; added tags and fusions are not shown. Lines headed by an entry give the natural chain unless they say otherwise; changes in a name come on top.
UniProt Q01638: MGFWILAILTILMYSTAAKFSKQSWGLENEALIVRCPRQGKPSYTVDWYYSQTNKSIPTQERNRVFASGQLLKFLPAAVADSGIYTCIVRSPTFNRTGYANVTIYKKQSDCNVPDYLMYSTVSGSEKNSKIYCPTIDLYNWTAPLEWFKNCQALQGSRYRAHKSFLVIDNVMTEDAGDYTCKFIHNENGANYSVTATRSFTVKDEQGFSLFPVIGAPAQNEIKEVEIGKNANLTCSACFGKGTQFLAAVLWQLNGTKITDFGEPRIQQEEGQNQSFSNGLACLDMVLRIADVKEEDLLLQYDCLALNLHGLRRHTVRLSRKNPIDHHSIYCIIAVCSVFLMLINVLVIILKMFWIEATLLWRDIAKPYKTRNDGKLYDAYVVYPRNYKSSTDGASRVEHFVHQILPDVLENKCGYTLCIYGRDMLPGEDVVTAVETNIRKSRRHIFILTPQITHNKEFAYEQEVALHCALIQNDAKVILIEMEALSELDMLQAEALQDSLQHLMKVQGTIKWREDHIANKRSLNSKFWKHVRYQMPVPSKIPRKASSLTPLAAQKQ

SMILES	inhibition
Cc1ccc(OCCCN2CCCCC2)c([N+](=O)[O-])c1	inactive
Clc1ccc(NCn2nnc3ccccc32)nc1	inactive
Cc1cc(I)ccc1N=Cc1nc(-c2ccc(Cl)cc2)oc1O	inconclusive: 11%
CCCN(CCC)S(=O)(=O)c1ccc(C(=O)Nc2ccc3sc(SC)nc3c2)cc1	inconclusive: 11%
COc1ccc(-c2cc(C(N)=O)on2)c(OC)c1	inactive
COc1ccc(NC(=O)N2CCC(n3c(C)nc4cccnc43)CC2)cc1OC	inconclusive: 11%
CCOc1cc2c(cc1OCC)C1C(C(=O)N3CCOCC3)c3ccccc3C(=O)N1CC2 (configuration not stated)	inactive
COc1ccc(F)cc1CN1CC[C@@](C)(O)[C@@H](Cc2ccccc2)C1	inconclusive: 13%
Cc1c(Cl)cccc1NC(=O)CCS(=O)(=O)c1cccc2nsnc12	inconclusive: 15%
COc1cccc(CN2CCCC(O)(CN3CCC(n4cnnc4)CC3)C2=O)c1 (configuration not stated)	inactive
O=C(NC1CCCN(CCc2ccccc2)C1)c1cc(-c2ccsc2)n[nH]1 (configuration not stated)	inconclusive: 13%
O=C(CCN1CCCCO1)NCCc1cnc[nH]1	inconclusive: 13%
COc1ccc(C2C3=C(CCCC3=O)Nc3nc(SCc4ccccc4F)nn32)cc1 (configuration not stated)	inconclusive: 15%
CC1CCCN(C(=O)C(C)Oc2ccccc2)C1 (configuration not stated)	inactive
COc1ccc(/C=C2/C(C)=C(C#N)c3nc(N)c(C#N)c(C)c32)cc1Br	inconclusive: 24%
O[C@@H]1C[C@@H](c2nc(-c3ccccc3)no2)N(Cc2cccs2)C1	inconclusive: 20%
CS(=O)(=O)N1CCCC(C(=O)NC2CCCCC2)C1 (configuration not stated)	inactive
CC(=O)c1cccc(OCC(=O)N2CCOCC2)c1	inconclusive: 18%
Cn1ccnc1-c1ccc(NC2CCc3ccccc32)nn1 (configuration not stated)	inconclusive: 14%
CCSc1nnc(NC(=O)CC(NC(=O)C(F)(F)F)c2ccc(OC)cc2)s1 (configuration not stated)	inconclusive: 16%
COc1ccccc1-c1ncnn1-c1sc2c(c1C#N)CCCCC2	active: 48%

In the list so far, three have two or more sulfur atoms.
SMILES	inhibition
CCCN(CCC)S(=O)(=O)c1ccc(C(=O)Nc2ccc3sc(SC)nc3c2)cc1	inconclusive: 11%
Cc1c(Cl)cccc1NC(=O)CCS(=O)(=O)c1cccc2nsnc12	inconclusive: 15%
CCSc1nnc(NC(=O)CC(NC(=O)C(F)(F)F)c2ccc(OC)cc2)s1 (configuration not stated)	inconclusive: 16%

(more compounds)

SMILES	inhibition
CCOc1ccc(Cc2nc(C)c(CC(N)=O)c(=O)[nH]2)cc1	inconclusive: 13%
CCCOc1ccc2oc(=O)c3c(c2c1)CCCN3C(=O)CN1CCC(C)CC1	inconclusive: 10%
COc1ccccc1/C=C/C1=NC(=C\c2ccc3c(c2)OCO3)/C(=O)O1	inconclusive: 13%
CCCCn1cnc2sc3c(c2c1=N)CCCCC3	inactive
C=CCOC(=O)C1=C(C)Nc2nnnn2C1c1cccnc1 (configuration not stated)	inactive
Cc1cc(C)n(-c2ccc(NC(=O)C3CCN(C(=O)CCCc4cccs4)CC3)cc2)n1	inactive
CC1CCN(C(=O)Cn2c(=O)n(-c3ccccc3)c(=O)c3sccc32)CC1	inactive
CCOC(=O)C1CCN(C(=O)CN2C(=O)C(CC)Oc3ccccc32)CC1 (configuration not stated)	inconclusive: 18%
Fc1cccnc1CN1CCN(C(c2ccccc2)c2ccccc2)CC1	inconclusive: 11%
CCCN(CCO)Cc1ccccn1	inconclusive: 10%
CCOc1cccc2cc(-c3csc(C)n3)c(=O)oc12	inactive
CCC(C)n1c(=N)c(C(=O)NCCCOC)cc2c(=O)n3cccc(C)c3nc21 (configuration not stated)	inactive
COc1ccccc1-c1noc(CCC(=O)N2[C@@H]3CC[C@H]2CNC(=O)C3)n1	inconclusive: 10%
COc1ccc(NCn2nnc3ccccc32)c([N+](=O)[O-])c1	inconclusive: 25%
Cc1cccc(C)c1NC(=O)NCCc1nc2cccnc2n1Cc1ccccc1	inconclusive: 10%
CC(=O)N[C@@H]1C[C@H](Cc2ccccc2)O[C@H](c2ccc(Cl)cc2)C1	inconclusive: 10%
O=C(CSc1nc(-c2ccccc2)[nH]c1-c1ccc(F)cc1)Nc1nccs1	inactive
Cn1nnc2cc(C(=O)N3CCC4(CCCO4)CC3)cnc21	inconclusive: 23%
O[C@@H]1C[C@@H](c2nc(-c3ccncc3)no2)N(Cc2ccc(F)cc2)C1	inconclusive: 12%
CC(c1ccc(-c2cnc(N)cn2)cc1)N1CCCC1 (configuration not stated)	inconclusive: 15%
Cc1ccc(-c2ccc(C=O)o2)cc1[N+](=O)[O-]	inconclusive: 21%

SMILES	inhibition
COc1ccc(-c2nc(CN3CCN(c4ccc(C)cc4C)CC3)c(C)o2)cc1	inconclusive: 12%
CCOc1cc(C2NC(=O)NC(C)=C2C(=O)OC)ccc1OC(=O)C1CC1 (configuration not stated)	inconclusive: 17%
CCOC(=O)C1(Cc2ccccc2Cl)CCN(C(=O)CCc2ccccc2)CC1	inactive
COC(=O)[C@@H](C)NC(=O)[C@H]1CN(C(=O)c2ccc(N(C)C)cc2)CCN1S(C)(=O)=O	inconclusive: 18%
CSc1nc(N)nc(SCC(=O)C(C)(C)C)c1C#N	inconclusive: 12%
CCC(=O)N1N=C(c2cccs2)CC1c1ccc(OC)cc1 (configuration not stated)	inconclusive: 23%
CC1(C(=O)NCc2cccnc2)CCC(=O)N1CCN1CCOCC1 (configuration not stated)	inactive
CCOc1cc(/C=C2/NC(=O)NC2=O)cc(Br)c1OC(C)C	inconclusive: 16%
COc1ccccc1NC(=O)C1=C(C)Nc2ncnn2C1c1ccc(Br)cc1 (configuration not stated)	inactive
O=C1CCc2cc(S(=O)(=O)NC3CCCC3)ccc2N1	inactive
COc1cc(OC)cc(C(=O)N(c2ccc(Br)cc2)C2C=CS(=O)(=O)C2)c1 (configuration not stated)	inactive
Cc1ccc2[nH]c3c(c2c1)CN(C)CC3	inconclusive: 25%
CC(=O)N1CCn2nc(C(=O)NCC3(c4ccccc4)CCOCC3)cc2C1	inconclusive: 13%
CC12CC(NC(=O)N1c1ccc(Br)cc1)c1cc(Cl)ccc1O2 (configuration not stated)	inactive
CCCCn1cnc2cc(NCc3cccc(Br)c3)ccc21	inconclusive: 10%
O=C1N(Cc2cccnc2)C(=O)C2(CCN(Cc3ccc4c(c3)CCO4)CC2)N1CCc1ccccc1	inconclusive: 20%
CCc1nc(C)cc([N+](=O)[O-])c1O	inconclusive: 10%
CC(=O)Nc1ccc(Cl)c(C(=O)N(C)CCCN2CCCCCC2)c1	inconclusive: 12%
CCN(Cc1ccccc1)C(=O)c1cccn2c(=O)c3c4c(sc3nc12)CCCC4	inactive
CCc1cc(N2CCC3(CC2)CNC(=O)O3)nc(N2CCOCC2)n1	inconclusive: 19%

From PubChem BioAssay AID1259354 (Paczesny and Yang Labs, IUPUI and University of Michigan, 2018)
